Laboratory results: PubChem BioAssay AID493014 (National Center for Advancing Translational Sciences (NCATS), 2011)
Screen size: about 340,000 compounds; about 170 (0.05%) were called active. Inconclusive means that the source gave no clear call. Such entries were picked first, then a sample of the others. The call rests on the fitted dose curve; in most records, active means well fitted inhibition curve with a large enough effect in the signal ratio, with a control signal flat (not every such curve was filed as active); inconclusive means small, poorly fitted or top-dose-only effect, or effect the other way, or a change in a side signal; inactive means flat fitted curve, though single readings scatter; the % refers to the signal ratio. Potencies of inconclusive entries are doubtful fits and often do not repeat.

test: qHTS Assay to Find Inhibitors of Chronic Active B-Cell Receptor Signaling; details: ABC-DLBCL IkBa-CBG/CBR reporter, luminescence ratio (green luciferase fused to IkBa over red control in TMD8 lymphoma cells), 4 h; activity change, negative = inhibition: at 46.1 µM (top of the series);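 on activity change, negative = inhibition: plate controls were basal doxycycline-induced cells for no effect and cells given 10 µM MG132 for full effect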
From the text: NIH Molecular Libraries Probe Production Network [MLPCN] NIH Chemical Genomics Center [NCGC] MLPCN Grant: 1 R03 DA031086-01A1 PI Name: Dr. R. Eric Davis NCGC Assay Overview: Diffuse large B-cell lymphoma (DLBCL) is the most common category of non-Hodgkin lymphoma, with ~20,000 new cases per year in the United States. DLBCL should be regarded as a collection of different neoplasms. Microarray gene expression analysis has defined two principal types of DLBCL, named for their similarity to normal B cell stages or activation states: a germinal center B-cell (GCB) type, and an activated B-cell (ABC) type. In ABC-DLBCL, a constitutive high-level activity of the NF-kappaB family of transcription factors has been observed (1) and NF-kappaB target genes are more highly expressed in ABC primary tumors than in GCB tumors. Functional studies have shown a constitutive high-level activity of the IkappaB (inhibitor of kappa-B) kinase (IKK) complex. […] Further analysis of DLBCL primary tumors for NF-kappaB target gene expression imply that although CARD11 is required for constitutive IKK activity in all ABC-DLBCL lines, mutations in CARD11 may be the root cause of IKK activation only in lines or tumors with such mutations. In other words, CARD11 mutations may explain NF-kappaB activation in only 10% of ABC-DLBCL cases. […] This process has been termed 'chronic active BCR signaling' (CABS). The goal of this screen is to find small-molecule inhibitors of the CABS pathway found in ABC-DLBCL lines using a cell-based assay that measures IkappaBalpa stability, which has already been extensively validated in the OCI-Ly3 line (PubChem AID:445; REF: 4). […] The assay uses green (CBG68) and red (CBR) emitting beetle luciferases [Chroma-GloTM developed by Promega Corp.] where the green luciferase is fused to IkappaBalpha and the red luciferase is present in its native state. Both luciferase genes are stably present in the TMD8 human ABC DLBCL cell line, but their expression is under the control of tetracycline-inducible promoters. Following the addition of doxycycline to induce expression of the luciferases, the green luminescence in control cultures rises only slowly because the CBG fusion partner IkappaBalpha is targeted by IKK activity for rapid degradation. In contrast, green luminescence rises rapidly in the presence of proteasome inhibitors or IKK inhibitors. The rise in red luminescence of CBR is not affected by proteasome or IKK inhibitors, and serves as normalization for cell number and nonspecific effects. Compounds were screened as a concentration-titration series that ranged from 46 uM to 3 nM.
NCGC Assay Protocol Summary: Cells were seeded in 1536-well plates at 5000 cells/4uL in IMDM medium containing 0.5% FBS, w/o phenol red, 1% penicillin/streptomycin. Then, 23 nL of compounds or DMSO were delivered to each well using a pin tool. One uL 20ng/ml doxycycline was then dispensed into white solid 1536-well plates and the plates were incubated at 37C/5% C02 in a cell incubator for 4 hrs. Then 4 uL luminescent substrate mix (in-house prepared: 150 mM Tris-Cl, pH 7.6, 3 mM MgCl2, 1% Triton X-100, 5 mM DTT, 0.2 mM CoA, 0.15 mM ATP, 5 mM D-luciferin, final concentrations) was added to each well. The plate was incubated at r.t. for 10-15 min. The plates were measured on a ViewLux plate reader for green luminescence (540/20 nm filter) and red luminescence (618/8 nm filter). The green and red luminescent signals were corrected for red and green luminescence filter overlap using previously determined filter calibration constants (determined using the procedure outlined in the Promega Technical Manual; REF 4). The %Activity was determined from the ratio of corrected green/red luminescent values. MG132 were used as control. […] Red luminescent %Activity was normalized to the difference between red luminesence in basal cells (0%Activity) and zero luminescence (-100% Activity). […]
Potency means the concentration at half of the fitted maximal effect.

Compound	Potency	activity change, negative = inhibition
O=C(Nc1nccs1)c1ccc(Br)o1	inconclusive: 5.17 µM [activator, full curve]	–
CC1CCC2(CC1)SCC(=O)N2c1ccc(F)cc1 (centres undefined)	–	inconclusive: -6.48%
CCCSc1cc(NCCOC(=O)CCC)c([N+](=O)[O-])c2nonc12	–	inactive: -26%
O=C(O)CS/C(=C\c1ccc(F)cc1)c1nc2ccccc2s1	–	inconclusive: -10.8%
O=C(Nc1nnc(COc2ccc(Cl)cc2)s1)c1ccco1	–	inactive: 5.31%
COC(=O)NC(=S)Nc1ccc(Oc2ccc(Cl)cc2Cl)c(Cl)c1	inconclusive: 18.4 µM [rising, single point]	–
COc1ccc(CNC(=O)CSc2nnc(Cn3nnc4ccccc43)n2C)cc1	–	inconclusive: 1.14%
CCCC(C(=O)NCC1CCCO1)N(Cc1ccccc1)C(=O)CNS(=O)(=O)c1ccccc1 (centres undefined)	–	inactive: 2.85%
Cc1cc(OCC(=O)Nc2cccc(S(=O)(=O)NC3=NCCCCC3)c2)ccc1Cl	–	inconclusive: -9.02%
NC(=O)NCCCC(=O)O	inconclusive: 23.1 µM [falling, single point]	–
O=Cc1cccc(Oc2ccc([N+](=O)[O-])cc2[N+](=O)[O-])c1	inconclusive: 31.6 µM [cytotoxic, single point]	–
CCN1C(=O)/C(=C2\Sc3ccccc3N2CC)OC1=S	–	inactive: 8.77%
CCN(CC)CCNC(=O)c1cc(Br)c(N)cc1OC	–	inactive: -0.0755%
Cc1[nH]nc2c1C(c1cccs1)C(C#N)=C(N)O2 (centres undefined)	–	inconclusive: -9.97%
O=C(CCCc1nc(-c2ccccc2Cl)no1)NC1CCCCC1	–	inconclusive: 19.3%
CC(C)N(C(=S)NCc1ccccc1)c1ccccc1	–	inactive: -0.0652%
CCc1cc(C(=O)Cc2cnn(-c3ccccc3)c2)c(O)cc1O	–	inconclusive: 3.48%
C/C(=N/NC(=O)CSc1ccccn1)c1ccc([N+](=O)[O-])cc1	–	inconclusive: -2.05%
CCN1/C(=C/c2ccc3ccc(C)cc3[n+]2CC)Sc2ccccc21	–	inconclusive: 15.9%
CCc1nc(C)cn1S(=O)(=O)c1cc(Br)ccc1OC	inconclusive: 1.78 µM [falling, partial curve, poor fit]	–
CCOC(=O)c1c(C)nn(-c2ccc(NC(=O)c3cccs3)cc2)c1C	–	inconclusive: -9.99%

Compound	Potency	activity change, negative = inhibition
Clc1ccc(C2=NNC(=NCC3CCCO3)SC2)cc1 (centres undefined)	inconclusive: 25.9 µM [cytotoxic, single point]	–
CCOc1ccccc1Nc1ccc(C(=O)O)cc1[N+](=O)[O-]	inconclusive: 4.47 µM [activator, partial curve, poor fit]	–
COc1cccc(Oc2ncnc(N)c2[N+](=O)[O-])c1	–	inactive: -7.15%
C=CCn1c(SCc2ccc(F)cc2)nnc1-c1sc2nc(C)cc(C)c2c1N	–	inconclusive: 8.87%
CCC1CCCCN1S(=O)(=O)c1ccc(NC(=O)C2CCN(C(=O)c3ccco3)CC2)cc1 (centres undefined)	–	inconclusive: -8.91%
CCOC(=O)N1CCN(c2nnc(-c3ccccc3)c3ccccc23)CC1	–	inactive: -0.563%
COc1ccc(C(=O)COC(=O)/C=C/c2ccccc2)c(OC)c1	–	inconclusive: 2.69%
COc1cc(Cl)cc(/C=C/c2ccc3cccc(O)c3n2)c1OC	–	inconclusive: -0.169%
COc1ccccc1NS(=O)(=O)c1cccc(NC(=O)c2ccc3ccccc3n2)c1	–	inconclusive: 16.9%
c1ccc(-c2noc(CN3CCN(c4cnccn4)CC3)n2)cc1	–	inconclusive: 6.84%
O=C1C(=O)N(Cc2cccs2)c2ccccc21	–	inactive: 0.178%
O=C(CSc1nc2[nH]c(=O)cc(O)c2s1)Nc1nccs1	–	inconclusive: 5.68%
Cc1ccc(C(=O)NC(=S)Nc2ccc(S(=O)(=O)N(C)c3ccccc3)cc2)cc1	–	inactive: 11%
COC(=O)CNC(c1ccccc1)c1cc(C)ccc1NC(=O)CNC(=O)OCc1ccccc1 (centres undefined)	–	inconclusive: -13%
Cc1cc(C)c(CN2CCN(C(=O)Cn3cnc(C(=O)Nc4ccc(C)c(C)c4)n3)CC2)c(C)c1	–	inactive: 0.496%
O=C(c1cccs1)N1CCN(C/C=C/c2ccccc2)CC1	–	inconclusive: 8.79%
CCCNC(=O)COC(=O)/C=C/c1ccco1	inconclusive: 0.206 µM [falling, full curve, poor fit]	–
Cc1cccc(-c2ccc3ncnc(NCc4cccs4)c3c2)c1	–	inconclusive: -0.232%
CCCCCOc1ccc(C(=O)N(Cc2ccccc2)C2CCS(=O)(=O)C2)cc1 (centres undefined)	–	inconclusive: -10.2%
Cc1ccc(-n2c(SCC(=O)NCCN3C(=O)CSC3=O)nnc2-c2cccc(C)c2)cc1	–	inconclusive: -0.552%
CCCn1nc(C(=O)Nc2nc(-c3ccccn3)cs2)c2ccccc2c1=O	–	inactive: -4.43%

Compound	Potency	activity change, negative = inhibition
Cc1ccccc1NC(=O)NC(N)=O	–	inconclusive: 4.92%
N#Cc1cccc(NC(=O)NCCc2c[nH]c3ccccc23)c1	–	inconclusive: 7.57%
O=C(O)c1ccc(S(=O)(=O)N2CCC3(CC2)CC(=O)c2ccccc2O3)cc1	–	inactive: 10.6%
COc1ccccc1CN(C)C(=O)c1ccc(S(=O)(=O)Nc2c(C)n(C)n(-c3ccccc3)c2=O)cc1	–	inconclusive: 1.85%
O=C(CSc1nnc(Cc2ccccc2)o1)Nc1ccc(N2CCOCC2)cc1	–	inconclusive: -0.267%
Cc1csc(NC(=O)C(Cc2ccccc2)n2cccc2)n1 (centres undefined)	–	inconclusive: 11.4%
Cn1c(=O)c2c(nc(SCC(=O)Nc3ccccc3)n2C)n(C)c1=O	–	inconclusive: 6.71%
O=C(CSCc1ccc(Cl)cc1)NCCSCc1ccco1	–	inconclusive: -14.2%
Cc1noc(C)c1S(=O)(=O)N(C)C[C@H]1Oc2ccc(NC(=O)CCC(F)(F)F)cc2C(=O)N([C@H](C)CO)C[C@@H]1C	–	inconclusive: -0.252%
Cc1cc(NC(=O)CCC(=O)N(c2ccccc2)C(C(=O)NCC2CCCO2)c2cccnc2)no1 (centres undefined)	inconclusive: 12.6 µM [falling, single point]	–
Cn1cc(CN2CCN(Cc3cccnc3)CC2)c(-c2ccc3c(c2)OCCO3)n1	–	inconclusive: -8.4%
CCOc1ccccc1NC(=O)COC(=O)c1c[nH]c2ccccc12	inconclusive: 0.651 µM [falling, full curve]	–
c1ccc(NC2=Nc3ccccc3CS2)cc1	–	inconclusive: 6.15%
COCCCNC(=O)c1c(N)n(/N=C/c2cccnc2)c2nc3ccccc3nc12	–	inconclusive: 13.7%
Cc1ccc(/C=N/N=C/c2ccc(C)cc2)cc1	–	inconclusive: 3.49%
Cc1cccc(C(=O)Nc2ccc(N3CCC(CCN4CCOCC4)CC3)c(C(=O)O)c2)c1	–	inconclusive: 1.46%
S=c1nc(C2CC2)n(-c2ccccc2)[nH]1	–	inconclusive: 6.07%
Cc1ccc(O)c(-c2cc(C(=O)Nc3c(C)n(C)n(-c4ccccc4)c3=O)[nH]n2)c1	–	inconclusive: -8.54%
COc1ccc(C(=O)Nc2nc(C)cs2)cc1S(=O)(=O)N1CCCC1	inconclusive: 11.2 µM [rising, partial curve, poor fit]	–
CCOC(=O)Cc1[nH]nc2c1C(C1C=CCCC1)C(C#N)=C(N)O2 (centres undefined)	inconclusive: 15.8 µM [falling, partial curve]	–
Cc1cc(NC(c2cccnc2)c2ccc3cccnc3c2O)no1 (centres undefined)	–	inactive: -0.86%

Compound	Potency	activity change, negative = inhibition
N/C(=N\OC(=O)c1ccc(Cl)cc1Cl)c1ccccn1	inconclusive: 12.6 µM [falling, partial curve]	–
CC(=O)Nc1ccc(OCc2nnc(-c3ccc(Cl)cc3)o2)cc1	–	inconclusive: 7.6%
COc1cccc(-c2cc(C(F)(F)F)nc(-n3cc(C)cn3)n2)c1	inconclusive: 7.94 µM [falling, partial curve, poor fit]	–
Fc1ccc(CSc2ccc(-c3ccco3)nn2)cc1	–	inactive: -9.5%
O=c1cc(NCc2ccccc2)nc2ccccn12	inconclusive: 12.6 µM [falling, single point]	–
COc1cccc(NC(=O)COc2ccccc2C(N)=O)c1	inconclusive: 16.4 µM [falling, single point]	–
Cc1cc(C)c2c(c1)N[C@H](c1cccs1)[C@@H]1CCO[C@H]21	–	inconclusive: 9.87%
Cc1ccc(Nc2nnc(SCC(=O)NCCN3C(=O)CSC3=O)s2)cc1C	–	inactive: -3.88%
Fc1ccc(NC(=S)Nc2ccc(Cl)cc2Cl)cc1	–	inactive: -1.93%
CN(C)c1ccc(/C=N/NC(=O)c2ccnn2C)cc1	–	inconclusive: 274%
O=C(CSc1nc2ccccc2o1)N1c2ccccc2Sc2ccccc21	–	inactive: 10.8%
CCN(CC)c1nc2ccccc2c(N)c1-c1ccccc1	–	inconclusive: 10.1%
Cc1cc(=O)[nH]c(N/N=C/c2c[nH]c3ccccc23)n1	–	inconclusive: -1.96%
COCCN1C(=O)N(c2cccc(C)c2)C(=O)C1CC(=O)Nc1ccc(F)cc1 (centres undefined)	inconclusive: 20.6 µM [falling, partial curve, poor fit]	–
CC1(C)CC(=O)C=C(Nc2ccc(C(=O)O)cc2)C1	inconclusive: 6.51 µM [falling, single point]	–
COc1ccc(Br)cc1CN(C)CC(=O)Nc1cccc(S(=O)(=O)N2CCCC2)c1	–	inconclusive: -15%
Cc1ccc2occ(/C=N/NC(=O)c3ccccc3C)c(=O)c2c1	inconclusive: 20 µM [falling, partial curve, poor fit]	–
Cc1cc2ccc3ccccc3c2cc1CN(C)C	–	inconclusive: -14.4%
CCN1CCN(C(=S)NC(=O)c2cc(OC)c(OC)c(OC)c2)CC1	–	inconclusive: -1.69%
Cc1noc(C)c1COc1cccc(C(=O)Nc2ccc(OCc3ccccc3)cc2)c1	–	inconclusive: -7.23%
N#CCSc1nnc(SCC#N)s1	–	inactive: -8.62%

Whole records, quoted from the list:
COc1cccc(-c2cc(C(F)(F)F)nc(-n3cc(C)cn3)n2)c1 in the list: Potency: inconclusive: 7.94 µM [falling, partial curve, poor fit]
COc1ccc(Br)cc1CN(C)CC(=O)Nc1cccc(S(=O)(=O)N2CCCC2)c1 in the list: activity change, negative = inhibition: inconclusive: -15%

In the list so far, these contain a CF3 group:
Compound	Potency	activity change, negative = inhibition
Cc1noc(C)c1S(=O)(=O)N(C)C[C@H]1Oc2ccc(NC(=O)CCC(F)(F)F)cc2C(=O)N([C@H](C)CO)C[C@@H]1C	–	inconclusive: -0.252%
COc1cccc(-c2cc(C(F)(F)F)nc(-n3cc(C)cn3)n2)c1	inconclusive: 7.94 µM [falling, partial curve, poor fit]	–
